According to PubChem BioAssay AID192 (DTP/NCI, 2004):
The list shows only some results of the screen, not a fair sample: it is rich in T/C values a quarter to a half above the control, in often repeated tests (any T/C) and in doses without a T/C. Further doses and runs are listed elsewhere. T/C: endpoint of the treated group in % of that of the vehicle group. Some entries give survivors of the animals treated and no T/C: the source files T/C as zero there, which appears to mark a toxic dose or a test without result, not a measured value. Some doses without a T/C left all or most animals alive at the check, yet need not have been tolerated: survival well below the control is almost never listed, so the zero probably covers shortened survival too. Counts of survivors are from the toxicity check (mostly the fifth day) where no day follows; animals may have died later. Schedules are NCI's codes, taken here to give the interval after Q, in days (D) or hours (H), and the number of doses after X. Marks such as (2×) give the number of equal values in this list. Some entries hold several experiments; the values are given in rising order. Where survival is the endpoint, this PubChem deposit counts one and a half times the control or more as active, and values a quarter to a half above the control carry no call in these data; other NCI protocols may use other cut-offs. Some T/C values carry the count of animals alive at the toxicity check (mostly the fifth day); where none is given, no animal had died by that day. Peptide text beside a SMILES is read from it. * marks the point of attachment. Trt = c1ccc(C(c2ccccc2)(c2ccccc2)*)cc1; Cbz = O=C(OCc1ccccc1)*; Bn = c1ccc(C*)cc1; βAla = NCCC(=O)O

Test system: BDF1 mice, B16 melanoma ip, median survival T/C
Assay: NCI In Vivo Anticancer Drug Screen. Data for tumor model B16 Melanoma (intraperitoneal) in B6D2F1 (BDF1) mice
Details: T/C endpoint: median survival time, higher T/C = longer survival
How it was run: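 Transplantable tumor model; survival or tumor size measured; reported as T/C, treated over vehicle control.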

[1] = dose: 100.0 mg/kg/injection, schedule: Q01DX009 (ip), vehicle: saline with Tween-80
[2] = dose: 200.0 mg/kg/injection, schedule: Q01DX009 (ip), vehicle: saline with Tween-80
[3] = dose: 4.0 mg/kg/injection, schedule: Q01DX009 (ip), vehicle: saline with Tween-80
[4] = dose: 400.0 mg/kg/injection, schedule: Q01DX009 (ip), vehicle: saline with Tween-80
[5] = dose: 50.0 mg/kg/injection, schedule: Q01DX009 (ip), vehicle: Klucel (hydroxypropylcellulose) (HPC)
[6] = dose: 100.0 mg/kg/injection, schedule: Q01DX009 (ip), vehicle: Klucel (hydroxypropylcellulose) (HPC)

O=C(O)C(c1ccccc1)C1CCCC1 (configuration not stated)
survivor count [1]: 6 of 6 | survivor count [2]: 5 of 6

O=C(CCN1CC1)Nc1cccc(NC(=O)CCN2CC2)c1
T/C (dose: 2.5 mg/kg/injection, schedule: Q01DX009 (ip), vehicle: Klucel (hydroxypropylcellulose) (HPC)): 130 % of control [8 of 10 alive] | survivor count (dose: 20.0 mg/kg/injection, schedule: Q01DX009 (ip), vehicle: Klucel (hydroxypropylcellulose) (HPC)): 9 of 10 and 10 of 10 | survivor count (dose: 40.0 mg/kg/injection, schedule: Q01DX009 (ip), vehicle: Klucel (hydroxypropylcellulose) (HPC)): 5 of 10 and 7 of 10 | survivor count (dose: 80.0 mg/kg/injection, schedule: Q01DX009 (ip), vehicle: Klucel (hydroxypropylcellulose) (HPC)): 2 of 10

NC(C(=O)O)c1ccc(CBr)cc1 (configuration not stated)
T/C (dose: 50.0 mg/kg/injection, schedule: Q01DX009 (ip), vehicle: acid diluted with saline): 137 % of control [9 of 10 alive]

COc1cc2c(c(OC)c1OC)-c1ccc(OC)c(=O)cc1[C@@H](NC(=O)c1ccccc1)CC2
T/C (dose: 0.25 mg/kg/injection, schedule: Q01DX009 (ip), vehicle: Klucel (hydroxypropylcellulose) (HPC), evaluated on day 45): 142 % of control | T/C (dose: 0.25 mg/kg/injection, schedule: Q01DX009 (ip), vehicle: Klucel (hydroxypropylcellulose) (HPC), evaluated on day 60): 130 % of control | T/C (dose: 0.5 mg/kg/injection, schedule: Q01DX009 (ip), vehicle: Klucel (hydroxypropylcellulose) (HPC), evaluated on day 45): 147 % of control | T/C (dose: 0.5 mg/kg/injection, schedule: Q01DX009 (ip), vehicle: Klucel (hydroxypropylcellulose) (HPC), evaluated on day 60): 147 % of control | survivor count (dose: 4.0 mg/kg/injection, schedule: Q01DX009 (ip), vehicle: Klucel (hydroxypropylcellulose) (HPC)): 7 of 10 (2×)

COc1ccc(CC2C(=O)NC(C)C(=O)N(C)C3Cc4ccc(cc4)Oc4cc(ccc4O)CC(C(=O)NC(C)C(=O)NC(C)C(=O)N2C)N(C)C3=O)cc1 (configuration not stated)
T/C (dose: 0.25 mg/kg/injection, schedule: Q01DX009 (ip), vehicle: saline with Tween-80): 134 % of control | T/C (dose: 0.5 mg/kg/injection, schedule: Q01DX009 (ip), vehicle: saline with Tween-80): 142 % of control | T/C (dose: 1.0 mg/kg/injection, schedule: Q01DX009 (ip), vehicle: saline with Tween-80): 133 and 147 % of control | T/C (dose: 2.0 mg/kg/injection, schedule: Q01DX009 (ip), vehicle: saline with Tween-80): 142 % of control | T/C [3]: 141 % of control | T/C (dose: 8.0 mg/kg/injection, schedule: Q01DX009 (ip), vehicle: saline with Tween-80): 145 % of control [7 of 10 alive]

O=C(O)c1[nH]c(=O)[nH]c(=O)c1N1CCCCC1
survivor count (dose: 100.0 mg/kg/injection, schedule: Q04DX003 (ip), vehicle: Klucel (hydroxypropylcellulose) (HPC)): 2 of 10

CN(C)CC/C=C1\c2ccccc2Sc2ccc(Cl)cc21
survivor count (dose: 0.97 mg/kg/injection, schedule: Q01DX009 (ip), vehicle: Klucel (hydroxypropylcellulose) (HPC)): 10 of 10

CC1(C)N=C(N)N=C(N)N1c1ccc(CNC(=O)Nc2ccc(S(=O)(=O)F)cc2)cc1
T/C (dose: 100.0 mg/kg/injection, schedule: Q04DX003 (ip), vehicle: saline): 127 % of control | T/C (dose: 200.0 mg/kg/injection, schedule: Q04DX003 (ip), vehicle: saline): 141 % of control | T/C (dose: 400.0 mg/kg/injection, schedule: Q04DX003 (ip), vehicle: saline): 126 % of control

Cc1cc(C)c(OCC(O)CO)c(C)c1 (configuration not stated)
survivor count [4]: 6 of 10

C#CCOCC1CN(C)C(=O)O1 (configuration not stated)
T/C (dose: 50.0 mg/kg/injection, schedule: Q01DX009 (ip), vehicle: saline): 126 % of control

CCCCCCCCCCCCCCCCCCNC(=S)N/N=C/c1ccc(Cl)cc1Cl
survivor count (dose: 400.0 mg/kg/injection, schedule: Q01DX009 (ip), vehicle: saline): 10 of 10

CC(Cc1ccccc1)NC(C#N)c1ccccc1 (configuration not stated)
survivor count [5]: 10 of 10 | survivor count [6]: 1 of 10

COC(=O)C(CSC(c1ccccc1)(c1ccccc1)c1ccccc1)NC(=O)C(CSCc1ccccc1)NC(=O)CCNC(=O)OCc1ccccc1 (configuration not stated) ({Cbz-βAla}-Cys(Bn)-Cys(Trt)-OMe; configuration not given here)
T/C [6]: 131 % of control | survivor count [6]: 10 of 10

O=S(=O)(CCBr)CCBr
survivor count [2]: 0 of 10

CC[n+]1ccc(Nc2ccc(NC(=O)c3ccc(C(=O)Nc4ccc(Nc5cc[n+](CC)c(N)n5)cc4)cc3)cc2)nc1N
survivor count (dose: 6.25 mg/kg/injection, schedule: Q01DX009 (ip), vehicle: suspension in saline): 10 of 10 | T/C (dose: 12.5 mg/kg/injection, schedule: Q01DX009 (ip), vehicle: suspension in saline): 140 % of control | survivor count (dose: 100.0 mg/kg/injection, schedule: Q01DX009 (ip), vehicle: suspension in saline): 10 of 10 | survivor count (dose: 200.0 mg/kg/injection, schedule: Q01DX009 (ip), vehicle: suspension in saline): 9 of 10

O=NNc1ccccn1
T/C (dose: 6.25 mg/kg/injection, schedule: Q01DX009 (ip), vehicle: saline): 134 % of control | survivor count (dose: 25.0 mg/kg/injection, schedule: Q01DX009 (ip), vehicle: saline): 10 of 10

N#Cc1ncc(C(Cl)Cl)nc1Cl
survivor count (dose: 50.0 mg/kg/injection, schedule: Q01DX009 (ip), vehicle: saline with Tween-80): 5 of 10 | survivor count [1]: 2 of 10 | survivor count [2]: 0 of 10

CC(=O)Nc1ccc2c(ccc3ccccc32)c1
survivor count [2]: 10 of 10

O=C(O)/C=C/C(=O)Nc1cccc(Oc2ccc([N+](=O)[O-])cc2[N+](=O)[O-])c1
survivor count (dose: 75.0 mg/kg/injection, schedule: Q01DX009 (ip), vehicle: Klucel (hydroxypropylcellulose) (HPC)): 10 of 10

CCO/C=C1\SC(=S)N(Cc2ccccc2)C1=O
survivor count (dose: 12.5 mg/kg/injection, schedule: Q01DX009 (ip), vehicle: Klucel (hydroxypropylcellulose) (HPC)): 10 of 10 | survivor count [5]: 1 of 10 and 9 of 10 | survivor count [6]: 4 of 10 and 8 of 10 | survivor count (dose: 200.0 mg/kg/injection, schedule: Q01DX009 (ip), vehicle: Klucel (hydroxypropylcellulose) (HPC)): 0 of 10 | survivor count (dose: 400.0 mg/kg/injection, schedule: Q01DX009 (ip), vehicle: Klucel (hydroxypropylcellulose) (HPC)): 0 of 10

CCOC(=O)N1CCN(CCCCCOc2ccccc2C2CCCCC2)CC1
survivor count [1]: 10 of 10 | survivor count [2]: 10 of 10

Cc1cc(C(C)(CC(C)C)c2ccc(O)c(C)c2)ccc1O
survivor count [1]: 9 of 10

COc1cc(Cc2nccc3cc(OC)c(OC)cc23)c(C(C)=O)cc1OC
survivor count (dose: 100.0 mg/kg/injection, schedule: Q01DX009 (ip), vehicle: saline): 10 of 10

O=Nc1ccc(O)c(=O)cc1
survivor count [3]: 10 of 10

O=C(NC(CSCc1ccccc1)C(=O)O)OCc1ccccc1 (configuration not stated)
survivor count [2]: 9 of 10

COC(=O)C1=C(N)CCc2ccccc21
survivor count [4]: 7 of 10

COc1cccc2c1C(=O)c1c(O)c3c(c(O)c1C2=O)C[C@@](O)(/C(C)=N/NC(=O)c1cccc([N+](=O)[O-])c1)C[C@@H]3OC1CC(N)C(O)C(C)O1 (some centres not stated)
T/C (dose: 1.0 mg/kg/injection, schedule: Q01DX001 (ip), vehicle: water): 131 % of control | T/C (dose: 2.0 mg/kg/injection, schedule: Q01DX001 (ip), vehicle: water): 147 % of control | T/C (dose: 4.0 mg/kg/injection, schedule: Q01DX001 (ip), vehicle: water): 139 % of control | T/C (dose: 8.0 mg/kg/injection, schedule: Q01DX001 (ip), vehicle: water): 146 % of control | T/C (dose: 16.0 mg/kg/injection, schedule: Q01DX001 (ip), vehicle: water): 146 % of control | survivor count (dose: 32.0 mg/kg/injection, schedule: Q01DX001 (ip), vehicle: water): 7 of 10 and 9 of 10 | survivor count (dose: 64.0 mg/kg/injection, schedule: Q01DX001 (ip), vehicle: water): 2 of 10

O=c1[nH]cc(N(CCCl)CCCl)c(=O)[nH]1
T/C (dose: 0.23 mg/kg/injection, schedule: Q01DX009 (ip), vehicle: saline with Tween-80): 130 % of control | T/C (dose: 0.38 mg/kg/injection, schedule: Q01DX009 (ip), vehicle: saline): 135 % of control | T/C (dose: 0.39 mg/kg/injection, schedule: Q01DX009 (ip), vehicle: saline with Tween-80): 145 % of control | T/C (dose: 0.75 mg/kg/injection, schedule: Q01DX009 (ip), vehicle: saline): 127 % of control | survivor count (dose: 1.8 mg/kg/injection, schedule: Q01DX009 (ip), vehicle: saline with Tween-80): 10 of 10 | survivor count (dose: 3.0 mg/kg/injection, schedule: Q01DX009 (ip), vehicle: saline with Tween-80): 10 of 10
